# Results taken from patent US12497431B2, “Modified peptide fragments of Cav-1 protein and the use thereof in the treatment of fibrosis” (Rein Therapeutics, Inc., priority 2018, dated 2025).
# At least one peptide structure holds a part that was inferred or is arguable (an end, a ring closure or a residue). No end group written: not given here.
# How the values were obtained:
# Assay type in all cases: cell-based
# [1] = test system: Idiopathic Pulmonary Fibrosis (IPF) cell line 2051; assay: Western blot of SMA and tubulin in IPF cells treated with Cav-1 peptides; details: 2 days treatment, 10 uM peptide (LTI-03 10 and 90 uM), ImageJ ratio (FIG. 2)
# Method: Cav-1 peptides were dissolved in DMSO to make 10 mM stock solutions. 10 mM stock solutions of each peptide were then diluted in HBSS to make 900 μM working stock solutions. The DMSO resuspended polypeptides as well as the working stocks were stored at −20 deg C. For culture media, working stocks were added to DMEM culture media to a final concentration of 10 μM of the Cav-1 peptide.
# Idiopathic Pulmonary Fibrosis (IPF) cell line 2051 was purchased and IPF cells from the fourth passage were seeded in 100 mm plates containing DMEM, 10% FBS, and 1% P/S. IPF cells were washed with 4 mL DMEM+1% P/S and serum starved overnight. Cells were then treated for 2 days with either 44 uL HBSS (negative control), 10 uM LTI-03 (SEQ ID NO: 2), 90 uM LTI-03 (positive control), 10 uM APi2350, 10 uM APi2354, 10 uM APi2355, 10 uM APi2356 or with 20 uL of DMSO (negative control).
# After 2 days of treatment, cells were washed once in cold, sterile HBSS. HBSS was removed, and 150 uL of lysis buffer with protease inhibitor cocktail was added to the cells. Cells were incubated with lysis buffer for 10 minutes. Cell lysates were scraped from the plates and collected. Cell lysates were then sonicated twice. […] The concentration of cell lysates was then determined by BCA assay. […]
# Western blots were photographed and analyzed with ImageJ to determine a ratio of smooth muscle actin to tubulin (FIG. 2).
# [2] = test system: AEC2 cells of non-specific interstitial pneumonia (NSIP) precision cut lung slices; assay: Lysotracker staining of AEC2 cells in NSIP precision cut lung slices; details: NSIP PCLS, 48 h after a single treatment with 10, 100, or 500 μM
# Description: (§1) To assess the effect of Cav-1 peptide APi2355 (SEQ ID NO: 8) on AEC2 cell viability, surgical biopsies were obtained for the preparation of non-specific interstitial pneumonia precision cut lung slices (PCLS). One individual with non-specific interstitial pneumonia (NSIP) and another with end-stage IPF were processed. Lysotracker staining, which stains acidic compartments in live cells and selectively accumulates in the lamellar bodies of lung AEC2 cells (Van der Velden et al., 2013), was performed. Cav-1 peptide was suspended in DMEM/5% FBS, and PCLS slices (n=5 replicates/treatment group) were treated with 10, 100, or 500 μM LTI-03 or APi2355 (Var 55). Lysotracker staining (Green DND-26, Promega) was performed on NSIP PCLS 48 h after a single treatment. […] In addition, lysotracker staining (Red DND-99, Promega) was performed on end-stage IPF on days 1, 2, 3, 5, and 7 following daily treatment with LTI-03 or APi2355.
# [3] = test system: AEC2 cells of end-stage IPF precision cut lung slices; assay: Lysotracker staining of AEC2 cells in end-stage IPF precision cut lung slices; details: end-stage IPF PCLS, daily treatment, staining on days 1, 2, 3, 5, and 7; 10, 100, or 500 μM
# Description: as §1
substance,measurement,setting,value
"FTTFTVT [LTI-03, FTTFTVT, reference compound]",expression of SMA relative to tubulin,[1],increase in SMA production relative to tubulin
same,AEC2 cell viability (lysotracker staining),[2],strong dose-dependent increase
same,AEC2 cell viability (lysotracker staining),[3],dose-dependent increase
